Test results: publication PMC3630084
No constants are given. Whether binding was seen depends on the method and setting. In cells and extracts the contact can be indirect. Some entries that bind do so weakly or less than the wild type. For part of these data: Tags and fused reporters may be left off the sequences shown.

By UniProt entry, the sequences of proteins in these tests, tags left out.
UniProt Q92879: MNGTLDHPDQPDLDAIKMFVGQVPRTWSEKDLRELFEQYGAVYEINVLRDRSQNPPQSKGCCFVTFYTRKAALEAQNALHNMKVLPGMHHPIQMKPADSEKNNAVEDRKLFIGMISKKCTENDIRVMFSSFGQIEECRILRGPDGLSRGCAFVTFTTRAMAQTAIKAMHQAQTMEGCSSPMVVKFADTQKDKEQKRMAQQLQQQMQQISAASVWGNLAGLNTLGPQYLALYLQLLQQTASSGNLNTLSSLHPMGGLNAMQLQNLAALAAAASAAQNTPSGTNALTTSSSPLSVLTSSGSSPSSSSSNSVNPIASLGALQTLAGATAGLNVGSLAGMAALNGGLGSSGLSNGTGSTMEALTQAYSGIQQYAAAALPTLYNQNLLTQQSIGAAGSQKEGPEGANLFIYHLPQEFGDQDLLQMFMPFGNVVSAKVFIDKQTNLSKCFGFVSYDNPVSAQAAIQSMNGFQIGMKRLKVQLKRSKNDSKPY
UniProt P05198: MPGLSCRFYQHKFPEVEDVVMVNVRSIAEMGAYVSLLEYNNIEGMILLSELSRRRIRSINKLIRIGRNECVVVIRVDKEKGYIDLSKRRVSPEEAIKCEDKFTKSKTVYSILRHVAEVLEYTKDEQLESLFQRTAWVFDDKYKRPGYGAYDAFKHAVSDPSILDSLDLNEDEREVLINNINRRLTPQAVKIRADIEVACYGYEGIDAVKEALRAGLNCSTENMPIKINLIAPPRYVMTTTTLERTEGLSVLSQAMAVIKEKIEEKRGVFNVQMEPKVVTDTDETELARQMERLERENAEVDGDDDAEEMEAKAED

What was measured:
[1] = molecular target: CUGBP1 (human (endogenous in primary human myoblasts and fibroblasts)) (UniProt Q92879); experiment: co-IP; 100 µg of cytoplasmic protein from control GFP-transfected DM1 myoblasts/fibroblasts; precipitated with CUGBP1 antibodies, probed with antibody to pS51-eIF2α; Trueblot protocol
[2] = molecular target: CUGBP1 (human (endogenous in primary human myoblasts and fibroblasts)) (UniProt Q92879); experiment: condition: only in SMAUG1-transfected DM1 myoblasts and fibroblasts; co-IP; 100 µg of cytoplasmic protein from SMAUG1-transfected DM1 myoblasts and fibroblasts; precipitated with CUGBP1 antibodies, probed with antibody to pS51-eIF2α; Trueblot protocol
[3] = molecular target: CUGBP1 (human (endogenous in primary human myoblasts and fibroblasts)) (UniProt Q92879); experiment: co-IP; extracts from SMAUG1-V5-transfected normal and DM1 human myoblasts; anti-CUGBP1 3B1 antibody coupled to Dynabeads M-270 Epoxy, Dynabeads Co-Immunoprecipitation kit; SMAUG1 visualized with anti-V5-HRP

binding [1]	binding [2]	binding [3]	Molecule
binds	no binding		pS51-eIF2α (eukaryotic translation initiation factor eIF2α phosphorylated at S51) (from UniProt P05198 1-315)
		binds	SMAUG1-V5 (human SMAUG1/SAMD4A) (protein, UniProt Q9UPU9 1-718) MMFRDQVGVLAGWFKGWNECEQTVALLSLLKRVSQTQARFLQLCLEHSLADCAELHVLEREANSPGIINQWQQESKDKVISLLLTHLPLLKPGNLDAKVEYMKLLPKILAHSIEHNQHIEESRQLLSYALIHPATSLEDRSALAMWLNHLEDRTSTSFGGQNRGRSDSVDYGQTHYYHQRQNSDDKLNGWQNSRDSGICINASNWQDKSMGCENGHVPLYSSSSVPTTINTIGTSTSTILSGQAHHSPLKRSVSLTPPMNVPNQPLGHGWMSHEDLRARGPQCLPSDHAPLSPQSSVASSGSGGSEHLEDQTTARNTFQEEGSGMKDVPAWLKSLRLHKYAALFSQMTYEEMMALTECQLEAQNVTKGARHKIVISIQKLKERQNLLKSLERDIIEGGSLRIPLQELHQMILTPIKAYSSPSTTPEARRREPQAPRQPSLMGPESQSPDCKDGAAATGATATPSAGASGGLQPHQLSSCDGELAVAPLPEGDLPGQFTRVMGKVCTQLLVSRPDEENISSYLQLIDKCLIHEAFTETQKKRLLSWKQQVQKLFRSFPRKTLLDISGYRQQRNRGFGQSNSLPTAGSVGGGMGRRNPRQYQIPSRNVPSARLGLLGTSGFVSSNQRNTTATPTIMKQGRQNLWFANPGGSNSMPSRTHSSVQRTRSLPVHTSPQNMLMFQQPEFQLPVTEPDINNRLESLCLSMTEHALGDGVDRTSTI
